No constants are given. Whether binding was seen depends on the method and setting. In cells and extracts the contact can be indirect. Here binding means that the protein was enriched with, or labelled near, the bait; the list need not be complete.

Protein sequences, listed by entry. Tags and fused reporters are not part of them.
UniProt Q15003: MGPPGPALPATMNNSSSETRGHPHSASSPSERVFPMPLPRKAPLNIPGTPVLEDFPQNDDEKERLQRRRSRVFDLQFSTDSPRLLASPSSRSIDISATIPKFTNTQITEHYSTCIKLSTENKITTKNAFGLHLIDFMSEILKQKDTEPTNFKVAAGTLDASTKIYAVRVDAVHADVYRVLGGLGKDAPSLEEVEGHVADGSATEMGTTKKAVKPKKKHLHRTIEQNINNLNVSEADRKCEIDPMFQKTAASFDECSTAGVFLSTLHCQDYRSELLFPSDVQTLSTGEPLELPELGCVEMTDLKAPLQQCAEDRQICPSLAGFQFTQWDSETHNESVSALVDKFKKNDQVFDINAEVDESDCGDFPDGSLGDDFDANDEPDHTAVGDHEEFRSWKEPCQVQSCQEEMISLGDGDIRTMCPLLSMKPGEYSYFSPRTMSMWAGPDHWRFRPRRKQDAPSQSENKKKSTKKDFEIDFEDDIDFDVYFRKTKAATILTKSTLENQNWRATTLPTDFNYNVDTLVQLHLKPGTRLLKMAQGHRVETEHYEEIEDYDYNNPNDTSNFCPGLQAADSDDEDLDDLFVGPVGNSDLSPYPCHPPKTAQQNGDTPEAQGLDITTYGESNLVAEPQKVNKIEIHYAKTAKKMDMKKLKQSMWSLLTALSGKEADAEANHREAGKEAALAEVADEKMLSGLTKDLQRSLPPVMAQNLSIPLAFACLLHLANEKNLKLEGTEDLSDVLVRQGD

This passage reports binding results from article PMC11300717.

In the test the target is NCAPH (non-SMC condensin I complex subunit H) (human (endogenous in HeLa)) (UniProt Q15003). As to the kind of experiment: affinity purification with mass spectrometry; HeLa total protein precipitated on agarose beads with anti-NCAPH antibody or IgG; SDS-PAGE, silver staining; the 50-70 kDa region that differed most was excised and analysed by mass spectrometry.

B1: SHMT2 (protein, UniProt P34897 30-504)
chain: NAAQTQTGEANRGWTGQESLSDSDPEMWELLQREKDRQCRGLELIASENFCSRAALEALGSCLNNKYSEGYPGKRYYGGAEVVDEIELLCQRRALEAFDLDPAQWGVNVQPYSGSPANLAVYTALLQPHDRIMGLDLPDGGHLTHGYMSDVKRISATSIFFESMPYKLNPKTGLIDYNQLALTARLFRPRLIIAGTSAYARLIDYARMREVCDEVKAHLLADMAHISGLVAAKVIPSPFKHADIVTTTTHKTLRGARSGLIFYRKGVKAVDPKTGREIPYTFEDRINFAVFPSLQGGPHNHAIAAVAVALKQACTPMFREYSLQVLKNARAMADALLERGYSLVSGGTDNHLVLVDLRPKGLDGARAERVLELVSITANKNTCPGDRSAITPGGLRLGAPALTSRQFREDDFRRVVDFIDEGVNIGLEVKSKTAKLQDFKSFLLKDSETSQRLANLRQRVEQFARAFPMPGFDEH
Turning to B1, the binding result is “binds”.

B2: EPHX1 (protein, UniProt P07099 1-455)
chain: MWLEILLTSVLGFAIYWFISRDKEETLPLEDGWWGPGTRSAAREDDSIRPFKVETSDEEIHDLHQRIDKFRFTPPLEDSCFHYGFNSNYLKKVISYWRNEFDWKKQVEILNRYPHFKTKIEGLDIHFIHVKPPQLPAGHTPKPLLMVHGWPGSFYEFYKIIPLLTDPKNHGLSDEHVFEVICPSIPGYGFSEASSKKGFNSVATARIFYKLMLRLGFQEFYIQGGDWGSLICTNMAQLVPSHVKGLHLNMALVLSNFSTLTLLLGQRFGRFLGLTERDVELLYPVKEKVFYSLMRESGYMHIQCTKPDTVGSALNDSPVGLAAYILEKFSTWTNTEFRYLEDGGLERKFSLDDLLTNVMLYWTTGTIISSQRFYKENLGQGWMTQKHERMKVYVPTGFSAFPFELLHTPEKWVRFKYPKLISYSYMVRGGHFAAFEEPELLAQDIRKFLSVLERQ
Consider B2, for which the binding result was “binds”.

B3: CCT2 (protein, UniProt P78371 1-535)
chain: MASLSLAPVNIFKAGADEERAETARLTSFIGAIAIGDLVKSTLGPKGMDKILLSSGRDASLMVTNDGATILKNIGVDNPAAKVLVDMSRVQDDEVGDGTTSVTVLAAELLREAESLIAKKIHPQTIIAGWREATKAAREALLSSAVDHGSDEVKFRQDLMNIAGTTLSSKLLTHHKDHFTKLAVEAVLRLKGSGNLEAIHIIKKLGGSLADSYLDEGFLLDKKIGVNQPKRIENAKILIANTGMDTDKIKIFGSRVRVDSTAKVAEIEHAEKEKMKEKVERILKHGINCFINRQLIYNYPEQLFGAAGVMAIEHADFAGVERLALVTGGEIASTFDHPELVKLGSCKLIEEVMIGEDKLIHFSGVALGEACTIVLRGATQQILDEAERSLHDALCVLAQTVKDSRTVYGGGCSEMLMAHAVTQLANRTPGKEAVAMESYAKALRMLPTIIADNAGYDSADLVAQLRAAHSEGNTTAGLDMREGTIGDMAILGITESFQVKRQVLLSAAEAAEVILRVDNIIKAAPRKRVPDHHPC
For the molecule B3, the binding result is given as “binds”.
